From patent US20050152901A1 come the findings set out here.

Assay [1] has as its target IFNAR1 on peripheral blood leucocytes / B cells of cotton-top tamarin (Sanguinus oedipus) (cotton-top tamarin (Sanguinus oedipus)). Description: flow cytometry on isolated tamarin peripheral blood leucocytes. On the technique in general: A flow cytometer gives signals particle by particle.
Assay [2] shares this target. Description: flow cytometry of IFNAR1 on white blood cells of treated tamarins (receptor occupancy in vivo).

Results are given in words; binding and its absence hold for the method and conditions named. Binding can be weak; no strength is given.

B1: CPI-1697, humanized anti-IFNAR-1 antibody (heavy chain H3, light chain K1) (antibody, human IgG4, V domains shown)
VH: EVQLVESGGGLVQPGGSLRLSCAFSGFTLSTSGMGIGWVRQAPGKGLEWVAHWWDDDKYYNPSLKSRFTISRDTSKNTVYLQMNSLRAEDTAVYYCARNYYPYDAWFDYWGQGTLVTVS
VL: DIQMTQSPSSLSASVGDRVTITCSASSSINSNHLHWYQQKPGKAPKLLIYRTSILASGVPSRFSGSGSGTSFTLTISSLQPEDFATYYCQQGSNIPFTFGQGTKVEIKR
For the molecule B1, the binding result in assay [1] and in assay [2] was “binds” throughout.
